From article PMC13178980
No constants are given. Whether binding was seen depends on the method and setting. In cells and extracts the contact can be indirect. Some results given as binding are weak or reduced against the parent protein; the word gives no strength.

Chains of the proteins cited; added tags and fusions are not shown.
UniProt Q9GZS1: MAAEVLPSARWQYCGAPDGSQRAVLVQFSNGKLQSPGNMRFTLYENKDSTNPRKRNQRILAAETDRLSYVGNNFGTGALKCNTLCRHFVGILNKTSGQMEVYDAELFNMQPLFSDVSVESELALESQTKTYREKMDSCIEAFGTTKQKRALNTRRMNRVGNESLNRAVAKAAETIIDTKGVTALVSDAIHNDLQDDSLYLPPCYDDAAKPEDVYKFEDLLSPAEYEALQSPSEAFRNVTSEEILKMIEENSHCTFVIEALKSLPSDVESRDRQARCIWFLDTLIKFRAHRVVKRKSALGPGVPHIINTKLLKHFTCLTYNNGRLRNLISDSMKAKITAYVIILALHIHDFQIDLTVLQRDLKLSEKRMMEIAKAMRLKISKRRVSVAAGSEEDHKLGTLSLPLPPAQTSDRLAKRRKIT
UniProt Q03164: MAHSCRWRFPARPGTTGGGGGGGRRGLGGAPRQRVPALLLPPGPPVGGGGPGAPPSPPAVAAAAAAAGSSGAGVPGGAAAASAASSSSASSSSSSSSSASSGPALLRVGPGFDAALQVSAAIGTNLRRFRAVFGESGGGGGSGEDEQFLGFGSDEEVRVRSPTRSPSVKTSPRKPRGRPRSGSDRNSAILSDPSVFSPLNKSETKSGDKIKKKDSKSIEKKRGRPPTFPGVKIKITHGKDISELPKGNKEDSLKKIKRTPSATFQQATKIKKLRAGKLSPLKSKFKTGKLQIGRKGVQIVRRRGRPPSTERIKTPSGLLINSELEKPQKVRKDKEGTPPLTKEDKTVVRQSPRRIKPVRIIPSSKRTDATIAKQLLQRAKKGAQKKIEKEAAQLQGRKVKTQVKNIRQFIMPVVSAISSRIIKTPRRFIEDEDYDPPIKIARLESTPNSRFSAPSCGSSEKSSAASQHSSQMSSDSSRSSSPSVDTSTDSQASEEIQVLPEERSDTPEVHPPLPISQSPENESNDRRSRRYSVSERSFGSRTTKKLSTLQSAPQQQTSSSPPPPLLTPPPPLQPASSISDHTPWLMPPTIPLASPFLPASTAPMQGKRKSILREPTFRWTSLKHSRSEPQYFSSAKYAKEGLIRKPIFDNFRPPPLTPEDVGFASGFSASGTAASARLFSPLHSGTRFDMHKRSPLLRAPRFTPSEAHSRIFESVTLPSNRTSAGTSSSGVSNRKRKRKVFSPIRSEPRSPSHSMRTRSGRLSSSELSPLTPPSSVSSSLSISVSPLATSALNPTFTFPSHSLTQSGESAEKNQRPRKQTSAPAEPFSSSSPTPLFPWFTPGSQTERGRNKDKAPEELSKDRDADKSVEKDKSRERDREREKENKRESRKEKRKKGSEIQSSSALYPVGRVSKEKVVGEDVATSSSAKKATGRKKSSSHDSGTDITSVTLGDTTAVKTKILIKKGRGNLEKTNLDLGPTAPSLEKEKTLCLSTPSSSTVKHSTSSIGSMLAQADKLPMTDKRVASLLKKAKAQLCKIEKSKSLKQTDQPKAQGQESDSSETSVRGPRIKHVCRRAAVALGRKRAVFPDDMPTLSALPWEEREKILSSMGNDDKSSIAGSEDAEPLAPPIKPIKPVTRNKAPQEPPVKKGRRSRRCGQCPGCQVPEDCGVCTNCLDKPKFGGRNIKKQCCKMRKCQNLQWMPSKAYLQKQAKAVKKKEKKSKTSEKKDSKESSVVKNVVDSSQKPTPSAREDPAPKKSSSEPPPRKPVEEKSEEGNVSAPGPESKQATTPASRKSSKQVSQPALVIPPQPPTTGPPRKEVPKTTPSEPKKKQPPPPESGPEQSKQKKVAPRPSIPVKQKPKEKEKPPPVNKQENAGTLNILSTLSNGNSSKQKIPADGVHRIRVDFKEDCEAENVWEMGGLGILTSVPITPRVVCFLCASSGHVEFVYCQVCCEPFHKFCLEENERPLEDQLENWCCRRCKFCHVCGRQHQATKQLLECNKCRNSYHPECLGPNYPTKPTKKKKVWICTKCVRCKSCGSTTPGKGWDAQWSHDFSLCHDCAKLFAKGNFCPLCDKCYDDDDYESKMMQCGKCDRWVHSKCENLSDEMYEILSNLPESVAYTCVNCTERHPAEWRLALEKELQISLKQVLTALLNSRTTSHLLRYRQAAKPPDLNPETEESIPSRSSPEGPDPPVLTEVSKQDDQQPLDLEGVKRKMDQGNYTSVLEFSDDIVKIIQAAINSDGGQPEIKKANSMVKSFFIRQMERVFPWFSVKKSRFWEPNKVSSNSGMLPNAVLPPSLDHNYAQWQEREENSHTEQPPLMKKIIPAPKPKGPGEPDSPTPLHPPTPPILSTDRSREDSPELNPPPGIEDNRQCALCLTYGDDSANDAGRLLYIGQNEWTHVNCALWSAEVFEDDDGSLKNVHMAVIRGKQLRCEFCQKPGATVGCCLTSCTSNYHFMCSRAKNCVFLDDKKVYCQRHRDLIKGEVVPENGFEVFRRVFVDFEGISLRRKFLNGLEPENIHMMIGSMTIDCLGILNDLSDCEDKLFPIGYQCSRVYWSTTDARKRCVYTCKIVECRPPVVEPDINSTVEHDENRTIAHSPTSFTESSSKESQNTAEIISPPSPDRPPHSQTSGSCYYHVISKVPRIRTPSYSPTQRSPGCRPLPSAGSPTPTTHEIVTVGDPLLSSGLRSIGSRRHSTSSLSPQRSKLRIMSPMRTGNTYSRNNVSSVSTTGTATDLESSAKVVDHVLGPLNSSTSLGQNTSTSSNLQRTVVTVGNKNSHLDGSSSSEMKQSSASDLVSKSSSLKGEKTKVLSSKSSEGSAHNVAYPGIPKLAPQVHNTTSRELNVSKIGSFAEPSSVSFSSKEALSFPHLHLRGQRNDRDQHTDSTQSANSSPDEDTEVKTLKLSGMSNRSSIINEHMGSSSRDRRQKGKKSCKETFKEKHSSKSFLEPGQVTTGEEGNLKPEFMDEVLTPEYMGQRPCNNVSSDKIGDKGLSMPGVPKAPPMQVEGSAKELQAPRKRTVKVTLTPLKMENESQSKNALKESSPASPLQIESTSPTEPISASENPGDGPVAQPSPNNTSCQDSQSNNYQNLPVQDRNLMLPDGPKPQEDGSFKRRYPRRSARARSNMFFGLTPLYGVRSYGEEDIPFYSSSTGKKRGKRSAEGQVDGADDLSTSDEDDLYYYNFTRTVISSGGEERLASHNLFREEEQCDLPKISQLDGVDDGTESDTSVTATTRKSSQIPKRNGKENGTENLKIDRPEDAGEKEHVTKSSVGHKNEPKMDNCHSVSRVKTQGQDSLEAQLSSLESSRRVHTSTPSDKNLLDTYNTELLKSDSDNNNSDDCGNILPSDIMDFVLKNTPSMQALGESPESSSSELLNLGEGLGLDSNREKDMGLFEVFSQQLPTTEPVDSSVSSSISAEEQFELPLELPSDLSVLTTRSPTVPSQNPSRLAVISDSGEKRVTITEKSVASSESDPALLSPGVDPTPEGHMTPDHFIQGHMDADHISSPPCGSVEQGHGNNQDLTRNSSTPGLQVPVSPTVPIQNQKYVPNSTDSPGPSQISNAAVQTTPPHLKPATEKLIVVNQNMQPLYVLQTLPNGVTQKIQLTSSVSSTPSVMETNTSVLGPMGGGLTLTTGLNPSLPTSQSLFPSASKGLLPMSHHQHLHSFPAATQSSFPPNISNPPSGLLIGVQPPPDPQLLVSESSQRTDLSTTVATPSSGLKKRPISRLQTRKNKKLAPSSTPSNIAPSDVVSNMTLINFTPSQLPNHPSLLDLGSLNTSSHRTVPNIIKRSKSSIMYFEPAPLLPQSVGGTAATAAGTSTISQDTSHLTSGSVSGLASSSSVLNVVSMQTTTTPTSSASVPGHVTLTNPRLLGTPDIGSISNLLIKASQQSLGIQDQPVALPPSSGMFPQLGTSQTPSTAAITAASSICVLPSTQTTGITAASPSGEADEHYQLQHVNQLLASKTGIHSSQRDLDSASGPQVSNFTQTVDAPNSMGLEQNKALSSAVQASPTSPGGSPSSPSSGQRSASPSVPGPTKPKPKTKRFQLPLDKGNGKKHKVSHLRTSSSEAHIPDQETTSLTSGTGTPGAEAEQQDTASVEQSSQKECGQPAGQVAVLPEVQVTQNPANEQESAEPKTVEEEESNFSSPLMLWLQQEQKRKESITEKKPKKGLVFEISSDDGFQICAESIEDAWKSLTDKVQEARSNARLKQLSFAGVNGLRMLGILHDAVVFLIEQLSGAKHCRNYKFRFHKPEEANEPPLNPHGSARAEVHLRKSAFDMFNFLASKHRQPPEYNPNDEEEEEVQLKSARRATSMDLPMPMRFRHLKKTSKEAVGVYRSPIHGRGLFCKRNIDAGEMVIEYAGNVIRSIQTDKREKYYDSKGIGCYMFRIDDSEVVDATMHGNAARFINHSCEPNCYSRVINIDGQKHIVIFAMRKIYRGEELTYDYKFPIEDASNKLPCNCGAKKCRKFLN
UniProt O95602: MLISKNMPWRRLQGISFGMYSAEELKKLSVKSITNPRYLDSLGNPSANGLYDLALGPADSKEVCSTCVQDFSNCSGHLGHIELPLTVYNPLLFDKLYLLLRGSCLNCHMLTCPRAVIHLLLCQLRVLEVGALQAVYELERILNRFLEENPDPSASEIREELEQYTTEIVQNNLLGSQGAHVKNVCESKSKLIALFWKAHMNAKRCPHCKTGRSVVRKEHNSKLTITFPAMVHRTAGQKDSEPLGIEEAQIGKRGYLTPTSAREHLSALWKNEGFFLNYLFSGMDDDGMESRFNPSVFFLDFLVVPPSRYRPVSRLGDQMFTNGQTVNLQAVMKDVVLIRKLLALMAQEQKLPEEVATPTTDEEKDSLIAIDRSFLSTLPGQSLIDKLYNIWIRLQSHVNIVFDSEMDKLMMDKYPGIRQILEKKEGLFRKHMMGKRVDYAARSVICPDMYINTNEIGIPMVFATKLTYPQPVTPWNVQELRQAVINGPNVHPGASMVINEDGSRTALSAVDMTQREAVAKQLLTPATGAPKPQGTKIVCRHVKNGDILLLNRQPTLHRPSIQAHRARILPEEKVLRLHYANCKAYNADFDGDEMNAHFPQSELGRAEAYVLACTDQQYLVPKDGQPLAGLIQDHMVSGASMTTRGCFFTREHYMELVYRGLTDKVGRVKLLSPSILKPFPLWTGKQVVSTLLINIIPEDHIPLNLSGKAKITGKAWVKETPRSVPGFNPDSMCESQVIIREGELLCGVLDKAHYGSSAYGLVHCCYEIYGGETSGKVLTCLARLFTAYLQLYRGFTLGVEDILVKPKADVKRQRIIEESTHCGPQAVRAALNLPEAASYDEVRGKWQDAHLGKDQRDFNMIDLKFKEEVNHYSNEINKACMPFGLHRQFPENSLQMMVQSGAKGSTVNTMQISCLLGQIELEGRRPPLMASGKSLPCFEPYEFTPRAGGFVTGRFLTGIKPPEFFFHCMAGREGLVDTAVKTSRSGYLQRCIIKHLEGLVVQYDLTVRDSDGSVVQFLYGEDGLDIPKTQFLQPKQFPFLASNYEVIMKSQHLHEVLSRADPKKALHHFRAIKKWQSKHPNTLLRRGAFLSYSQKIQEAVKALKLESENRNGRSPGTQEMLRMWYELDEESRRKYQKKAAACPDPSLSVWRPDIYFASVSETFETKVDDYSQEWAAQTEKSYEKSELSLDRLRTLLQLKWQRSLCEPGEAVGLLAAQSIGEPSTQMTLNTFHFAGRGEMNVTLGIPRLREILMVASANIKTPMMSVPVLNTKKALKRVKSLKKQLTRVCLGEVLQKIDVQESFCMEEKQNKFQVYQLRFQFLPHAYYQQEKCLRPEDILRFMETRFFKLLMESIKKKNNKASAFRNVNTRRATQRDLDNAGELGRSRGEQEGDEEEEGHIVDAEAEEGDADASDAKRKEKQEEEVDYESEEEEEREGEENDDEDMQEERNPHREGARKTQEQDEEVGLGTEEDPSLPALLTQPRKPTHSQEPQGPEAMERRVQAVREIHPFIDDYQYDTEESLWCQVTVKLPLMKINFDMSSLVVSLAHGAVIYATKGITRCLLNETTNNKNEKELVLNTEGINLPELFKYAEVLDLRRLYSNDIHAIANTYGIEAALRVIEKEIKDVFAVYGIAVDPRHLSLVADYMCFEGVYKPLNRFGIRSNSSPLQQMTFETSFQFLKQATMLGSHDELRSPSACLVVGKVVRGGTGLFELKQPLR

Columns and labels:
GST-RPA34 = GST-RPA34 (UniProt O15446); assay: pull-down; purified bead-bound GST-tagged proteins incubated with HeLa or HeLa spinner whole-cell or nuclear extracts for 2-3 hours, washed with IP wash buffer; blots with anti-KMT2A and anti-KMT2F; only the target purified
GST-RPA49 = GST-RPA49 (UniProt Q9GZS1); assay: as above
SFB-tagged KMT2F N1646A = SFB-tagged KMT2F N1646A (UniProt O15047); assay: pull-down; SFB-tagged proteins overexpressed in cells, lysate incubated with S protein beads overnight, washed with IP wash buffer; immunoblot for endogenous RPA194, RRN3 and RPA-49
[1] = biological target: SFB-tagged RRM of KMT2F (74-172) (UniProt O15047); assay: as above
[2] = biological target: SFB-tagged full-length KMT2F (UniProt O15047); assay: as above
[3] = biological target: KMT2A (human (endogenous in HeLa)) (UniProt Q03164); assay: co-IP; endogenous immunoprecipitation from HeLa nuclear extract with antibodies against KMT2A or KMT2F, Protein A beads, IgG as mock; immunoblot
[4] = biological target: KMT2F (human (endogenous in HeLa)) (UniProt O15047); assay: as above

binding (GST-RPA34)	binding (GST-RPA49)	binding (SFB-tagged KMT2F N1646A)	binding [1]	binding [2]	binding [3]	binding [4]	Substance
		binds	binds	binds	binds	binds	RPA194 (from UniProt O95602 1-1720)
		binds	binds	binds	binds	binds	RRN3 (from UniProt Q9NYV6 1-651)

Second part, the substance before the results:

Substance	binding (GST-RPA34)	binding (GST-RPA49)	binding (SFB-tagged KMT2F N1646A)	binding [1]	binding [2]	binding [3]	binding [4]
KMT2A (from UniProt Q03164 1-3969)	binds	binds					
KMT2F (from UniProt O15047 1-1707)	binds	binds					
RPA49 (from UniProt Q9GZS1 1-419)			binds	binds	binds		
